Assay results as given in patent US7022690B2, “Carboxylic acid substituted heterocycles, derivatives thereof and methods of use” (Amgen Inc., priority 1997, dated 2006).
Some of these results come from one statement about several compounds together.

System: HNC and/or HFS
Experiment: HNC and/or HFS inhibition activity (target not resolved per compound)
Assay type: biochemical, human
Settings: not specified which

IC50, < 10 µM:
COc1ccc(S(=O)(=O)N2CC=CCC(NC(=O)OCc3cc(Cl)cc(Cl)c3)C2C(=O)O)cc1 (stereo not drawn) [3-(3,5-Dichlorobenzyloxycarbonylamino)-1-(4-methoxy-benzenesulfonyl)-2,3,4,7-tetrahydro-1H-azepine-2-carboxylic acid]
COc1ccc(S(=O)(=O)N2CCCCC(NS(=O)(=O)Cc3ccccc3N)C2C(=O)O)cc1 (stereo not drawn) [1-(4-Methoxy-benzenesulfonyl)-3-(2-amino-phenylmethanesulfonylamino)-1H-azepane-2-carboxylic acid]
COc1ccc(S(=O)(=O)N2CC=CCC(N(c3ccccc3[N+](=O)[O-])S(C)(=O)=O)C2C(=O)O)cc1 (stereo not drawn) [1-(4-Methoxy-benzenesulfonyl)-3-(2-nitrophenyl-methanesulfonylamino)-2,3,4,7-tetrahydro-1H-azepine-2-carboxylic acid]
COc1ccc(S(=O)(=O)N2CCCCC(NS(=O)(=O)Cc3ccccc3)C2C(=O)O)cc1 (stereo not drawn) [1-(4-Methoxy-benzenesulfonyl)-3-(phenylmethanesulfonylamino)-1H-azepane-2-carboxylic acid]
COc1ccc(S(=O)(=O)N2CC=CCC(NC(=O)OCc3ccc(Cl)cc3)C2C(=O)O)cc1 (stereo not drawn) [3-(4-Chlorobenzyloxycarbonylamino)-1-(4-methoxy-benzenesulfonyl)-2,3,4,7-tetrahydro-1H-azepine-2-carboxylic acid]
COc1ccc(S(=O)(=O)N2CC=CCC(NS(=O)(=O)C(=O)C=Cc3ccccc3)C2C(=O)O)cc1 (stereo not drawn) [1-(4-Methoxy-benzenesulfonyl)-3-(phenylacroylsulfonylamino)-2,3,4,7-tetrahydro-1H-azepine-2-carboxylic acid]
